Columns and labels:
[1] = Kinetic permeation assay with infinite dosage using vertical Franz diffusion cells; assay type: in vitro ADME, pig; conditions: infinite dose 300 µL in propylene glycol (DS 3%, IBU 1%, LIDO 2%, CAF 1% w/v), mean ± SD
Description: (§1) A porcine skin membrane was employed for both the permeation and penetration assays. […] The skin was provided by the Department of Cardiology of the Hospital Clinic (Barcelona, Spain). Dorsal unboiled skin (female white/landrace pigs) was prepared: the bristles were removed (A5 Clipper 78005-500, Oster professional, McMinnville, OR, USA) and dermatomed (Dermatome GA630, Aesculap, Tuttlingen, Germany) at 500 ± 50 μm thick. Thickness was verified with a digital micrometer 40EX (Mahr, Göttingen, Germany). Skin biopsies were cut into discs with 2.5 cm diameter. The skin discs were stored until the experiment (at −20 °C).
The kinetic diffusion assay was conducted using a Vision Microette (Vision G2 V14.1) with an Autosampler and an Autofill Collector (Hanson Research, Chatworths, CA, USA) automated vertical diffusion cell (7 mL acceptor chamber, and surface area of application of 1.77 cm^2).
The receptor fluid (RF) used was aqueous buffer solution of PBS in the case of DS, IBU, and CAF, and NaH2PO4 (0.05 M, pH = 7) in the case of LIDO. Receptor fluid was continuously stirred with magnetic beads at 700 rpm to keep the contents of the receptor chamber homogenous. The system was thermostatted at 43 ± 1 °C to provide a skin surface temperature of 32 ± 1 °C.
Once TEWL was measured, 300 μL (infinite dose) of the four active solutions was applied in triplicate to each Franz cell (Hanson Research, Chatworths, CA, USA) and donor compartment was sealed to donor chamber to avoid evaporation. […] The content of receptor samples was diluted in 2 mL graduated flasks and filtered with a 0.45 µm nylon filter (Cameo, Sigma-Aldrich, St Louis, MO, USA) previous analyzed with a high-performance liquid chromatography-diode array detector (HPLC-DAD) (Section […]). The kinetics of penetration were determined, simulating the drug elimination in the body.
The cumulative amount of the active pharmaceutical ingredient (API) per surface area (Qn, µg/cm^2) was obtained for each replicate cell to calculate the release of the four APIs. The equation used to determine the cumulative amount of API in the receptor fluid was the following Equation (1):(1) Qn= Cn×Vc+ ∑i=1n−1Ci×Vs/A where Qn is the cumulative amount of API released at time n (μg/cm^2); Cn is the concentration of active ingredient in the sample (μg/mL); Vc is the volume of the vertical diffusion cell; ∑i=1n−1 Ci is the sum of the concentrations of API (µg/mL) determined at sampling intervals 1 through n − 1; Vs is the sample volume and A is the surface area of the sample.
The percentage of cumulative amount of API permeated over time was calculated by the following Equation (2):(2) % Release API= Qn/Total amount of API applied×100 […]

[2] = Penetration assay with finite dosage using vertical Franz diffusion cells; assay type: in vitro ADME, pig; conditions: finite dose 20 µL in propylene glycol, 24 h, normalized amount, mean ± SD, n = 3
Description: as §1
OECD guidelines and the published opinions of the Scientific Committee on Cosmetic Products and Non-Food Products (SCCS) were adhered in the penetration protocol. The excised pig skin was placed in a static Franz diffusion cell (Lara Spiral, Couternon, France) (1.86 cm^2 and 3 mL) with the dermis side facing the acceptor chamber. The receptor chamber was filled with receptor fluid. The receptor fluid was the same used in the kinetic assay (Section 2.4). Air bubbles entrapped below the skin were carefully removed and the assembled cells were deposited in a temperature-regulated water bath (Telesystem HP 15, H+P Labortechnik GmgH, Oberschleissheim, Germany) on top of a water-resistant magnetic stirring plate (Variomag 15 and Telemodul, H+P Labortechnik GmgH, Oberschleissheim, Germany). The homogeneity of receptor fluid was maintained by continuously stirring at 700 rpm. The system was thermostatted at 43 ± 1 °C to provide a skin surface temperature of 32 ± 1 °C.
The integrity and permeability of membranes were evaluated with the trans-epidermal water loss (TEWL) value as detailed in Section 2.3.
The finite assay protocol was conducted as described in previous studies. Briefly, 20 µL of each API solution was applied to the skin surface in the donor chamber (n = 3). According to the OECD methodology used, penetration studies were performed for 24 h. After the exposure time, the receptor fluid of all the membranes was collected to transfer to a 5 mL volumetric flask. The remaining API solution was removed from skin surface with specific washing procedure (W). Stratum corneum layers were obtained by tape stripping protocol with adhesive tape (D-Squame, Cuderm Corporation, Dallas, TX, USA) applied under controlled pressure (80 g/cm^2). Viable epidermis (E) and the dermis (D) were separated after heating the skin at 80 °C for several seconds. All samples were extracted with adequate solvent (Table 1) and filtered with a 0.45 µm Nylon filter (Cameo, Sigma-Aldrich, St. Louis, MO, USA) before HPLC quantification (Section 2.6).
The amount permeated in the skin was considered the sum of that in the epidermis, dermis, and receptor fluid. […]

Structure (SMILES): CCN(CC)CC(=O)Nc1c(C)cccc1C [Lidocaine, lidocaine]
- AUC ([1]; female, white/landrace, pig, receptor fluid, read-out: AUC (area under the curve)): 109 ± 35.1 µg·h/mL
- Cmax ([1]; female, white/landrace, pig, receptor fluid, read-out: Cmax (maximum concentration)): 50000 ± 11500 ng/mL
- J (flux) ([1]; n = 3): 2.29 ± 0.30 µg/cm^2/h
- AUC (%) ([1]; percentage release): 14.95 ± 6.09%
- % API detected in dermis (D) [2]: 2.60 ± 0.40%
- % API detected in epidermis (E) [2]: 2.92 ± 2.69%
- % API detected in receptor fluid (RF) [2]: 54.73 ± 7.48%
- % API detected in stratum corneum (SC) [2]: 4.77 ± 0.70%
